Measurements: the supplement of paper PMC10727501
Structures can show the parent of a compound that is named as a salt. The list shows a part of the results. Single values are uncertain here, since repeats match poorly.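 Researchers measured free-swimming zebrafish larvae's O-bend response probability to dark flashes (naive: first five; training: remaining flashes of four 60-flash blocks; test: later 60-flash block) and OMR turning toward alternating leftward/rightward LED motion. Six treated larvae were compared to sixty 0.1% DMSO controls, with |SSMD|≥2 marking a hit.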

Assays:
Conditions in all cases: 10 µM; pre-incubation: 30-90 min
[1] = test system: Danio rerio larvae (5 dpf, TLF); test: OMR-Perf (SSMD vs DMSO vehicle); higher = higher than vehicle (e.g. higher dark-flash O-bend response probability, or better optomotor performance)
[2] = test system: Danio rerio larvae (5 dpf, TLF); test: Prob-Test (SSMD vs DMSO vehicle); higher = higher than vehicle (e.g. higher dark-flash O-bend response probability, or better optomotor performance)
[3] = test system: Danio rerio larvae (5 dpf, TLF); test: Prob-Naive (SSMD vs DMSO vehicle); higher = higher than vehicle (e.g. higher dark-flash O-bend response probability, or better optomotor performance)
[4] = test system: Danio rerio larvae (5 dpf, TLF); test: Prob-Train (SSMD vs DMSO vehicle); higher = higher than vehicle (e.g. higher dark-flash O-bend response probability, or better optomotor performance)

Row | SMILES | OMR-Perf [1] | Prob-Test [2] | Prob-Naive [3] | Prob-Train [4]
1 | Nc1nc(OCc2cc(Br)cs2)c2[nH]cnc2n1 [Lomeguatrib] | -0.147 | -0.753 | 0 | -0.883
2 | Cn1c(CNc2ccc(C(=N)N)cc2)nc2cc(C(=O)N(CCC(=O)O)c3ccccn3)ccc21 [BIBR 953 (Dabigatran etexilate, Pradaxa)] | -0.36 | -0.11 | -0.301 | -0.473
3 | c1cncc(CN2CCC(n3ncc4c(N5CCOCC5)nc(-c5ccc6[nH]ccc6c5)nc43)CC2)c1 | -0.124 | -0.655 | -0.375 | -0.879
4 | Cl.Clc1cccc(Cl)c1NC1=NCCN1 [Clonidine HCl] | -0.45 | -0.775 | -0.354 | -0.889
5 | O=C1NC(=O)/C(=C/c2ccc3nccc(-c4ccncc4)c3c2)S1 | -0.351 | 0.0184 | -0.102 | 0.0829
6 | Cc1ccc(-c2cc(C(F)(F)F)nn2-c2ccc(S(N)(=O)=O)cc2)cc1 [Celecoxib] | -0.804 | -1.91 | -0.123 | -1.93
7 | O=C(O)c1ccc(N2C(=O)C(=Cc3ccc(-c4ccc([N+](=O)[O-])cc4)o3)C=C2c2ccccc2)cc1 | -0.522 | 0.218 | 0.312 | 0.527
8 | Cc1onc(-c2ccccc2)c1C(=O)N[C@@H]1C(=O)N2[C@@H]1SC(C)(C)[C@H]2C(=O)[O-].O.[Na+] [Oxacillin sodium monohydrate] | 0.169 | 0.876 | -0.142 | 0.369
9 | Cc1c(OCC(F)(F)F)ccnc1C[S@@](=O)c1nc2ccccc2[nH]1 [Dexlansoprazole] | 0.328 | -0.333 | 0.00602 | -1.51
10 | CCCCOc1ccc(C(=O)Nc2ccc(F)cc2F)cc1 | -0.0246 | -0.925 | -1.32 | -1.81
11 | c1coc(CNc2ncnc3nc[nH]c23)c1 [Kinetin] | -0.169 | 0.152 | 0.285 | -0.0654
12 | [O]=[V]([O][Na])([O][Na])[O][Na] [Sodium orthovanadate] | 0.223 | -0.0134 | 0.421 | -0.0111
13 | C[C@@H]1O[C@@H](Oc2c(-c3cc(O)c(O)c(O)c3)oc3cc(O)cc(O)c3c2=O)[C@@H](O)[C@H](O)[C@H]1O [Myricitrin] | -0.958 | 0.189 | 0.139 | -0.146
14 | CCOC(=O)[C@H](CCc1ccccc1)N[C@@H](C)C(=O)N1C(=O)N(C)C[C@@H]1C(=O)O [Imidapril HCl] | -0.0182 | 0.393 | 0.573 | 0.439
15 | CC[C@@H]1C(=O)OC[C@@H]1Cc1cncn1C.Cl [Pilocarpine HCl] | 0.583 | -0.216 | 0.448 | -0.371
16 | C=CCc1cc(OC)c(O)c(C(=O)NCCO)c1 [Alibendol] | -0.56 | -0.0688 | 0.517 | -0.307
17 | Cc1cc2c(F)c(Oc3ncnn4cc(OC[C@@H](C)O)c(C)c34)ccc2[nH]1 | -0.344 | -0.501 | -0.24 | -0.501
18 | CN(C)C(=N)NC(=N)N.Cl [Metformin hydrochloride (Glucophage)] | 0.066 | -0.183 | 0.507 | -0.178
19 | CC1=C(C(=O)O)N2C(=O)[C@@H](NC(=O)[C@H](N)c3ccccc3)[C@@H]2SC1 [Cephalexin] | 1.56 | 0.684 | 0.0311 | 0.762
20 | O=C(Nc1ccccc1)Nc1ccc(-c2ccc(C(=O)[C@@H]3CCC[C@@H]3C(=O)O)cc2)cc1 | -0.152 | 0.364 | -0.109 | 0.819
21 | CCc1c(C(=O)NCCc2ccc(N3CCCCC3)cc2)[nH]c2ccc(Cl)cc12 | -0.212 | 0.291 | 0.614 | 0.424
22 | COc1ccc2c(c1)c(CC(=O)O)c(C)n2C(=O)c1ccc(Cl)cc1 [Indomethacin] | -0.349 | -0.674 | -0.174 | -1.33
23 | CC(C)(F)C[C@H](N[C@@H](c1ccc(-c2ccc(S(C)(=O)=O)cc2)cc1)C(F)(F)F)C(=O)NC1(C#N)CC1 [Odanacatib (MK-0822)] | 0.0965 | 0.251 | 0.449 | 0.605
24 | CC(C)CC(N)=O [Isovaleramide] | -0.0499 | 0.338 | 0.585 | 0.44
25 | CN(C)CCCSC(=N)N.Cl.Cl [Dimaprit 2HCl] | -0.151 | 0.419 | 0.457 | 0.178
26 | CCCCNc1ccc(C(=O)OCCN(C)C)cc1.Cl [Tetracaine HCl] | 0.678 | 0.0826 | 0.536 | 0.0485
27 | CN1C(C(=O)Nc2ccccn2)=C(O)c2sc(Cl)cc2S1(=O)=O [Lornoxicam] | -0.99 | -1.3 | 0.13 | -1.41

Row | SMILES | OMR-Perf [1] | Prob-Test [2] | Prob-Naive [3] | Prob-Train [4]
28 | CCCC(C)NC(=O)c1ccc(Cl)c(Cl)c1 (configuration not stated) | -1.19 | -1.67 | -3.49 | -2.52
29 | CCOC(=O)N1CCC(=C2c3ccc(Cl)cc3CCc3cccnc32)CC1 [Loratadine] | -0.746 | -1.28 | -0.302 | -1.63
30 | CC(C)n1c(/C=C/[C@@H](O)C[C@@H](O)CC(=O)[O-])c(-c2ccc(F)cc2)c2ccccc21.[Na+] [Fluvastatin Sodium] | -0.132 | -0.519 | 0.214 | -0.306
31 | CC(=O)c1cc([N+](=O)[O-])c(Sc2ccc(F)cc2F)s1 | -0.675 | -1.41 | -0.714 | -0.214
32 | O=C(Nc1ccc(-c2ccnc(Nc3ccc(N4CCOCC4)cc3)n2)cc1)[C@@H]1CCCN1 | -0.125 | -0.295 | 0.145 | 0.0437
33 | Cn1c(=O)c2[nH]cnc2n(C)c1=O.Cn1c(=O)c2[nH]cnc2n(C)c1=O.NCCN [Aminophylline] | 0.0521 | -0.503 | -1.02 | -0.413
34 | Cc1ccc2c(c1)c1c(n2CCc2ccc(C)nc2)CCN(C)C1 [Latrepirdine] | -0.627 | -0.898 | 0.271 | -0.335
35 | O=C([O-])CC(O)(CC(=O)[O-])C(=O)[O-].O=C([O-])CC(O)(CC(=O)[O-])C(=O)[O-].[Bi+3].[K+].[K+].[K+].[K+].[K+] [Bismuth Subcitrate Potassium] | -0.26 | -0.218 | 0.0912 | 0.114
36 | C[C@H](NC(=O)Cc1cc(F)cc(F)c1)C(=O)N[C@H](C(=O)OC(C)(C)C)c1ccccc1 | 0.0379 | -0.877 | -0.562 | -0.141
37 | CN(C)Cc1cccc(N/C(=C2\C(=O)Nc3cc(C(=O)N(C)C)ccc32)c2ccccc2)c1 | 0.199 | -0.133 | -0.216 | 0.109
38 | COS(=O)(=O)[O-].C[N+]1(C)CCC(=C(c2ccccc2)c2ccccc2)CC1 [Diphemanil Methylsulfate] | -0.178 | 0.191 | 0 | 0.386
39 | O=C(NOC[C@H](O)CO)c1ccc(F)c(F)c1Nc1ccc(I)cc1F | -0.928 | -1.49 | -0.19 | -1.73
40 | CNC[C@H](O)[C@@H](O)[C@H](O)[C@H](O)CO [Meglumine] | 0.19 | 0.0539 | 0.285 | 0.303
41 | CC1=NN(c2ccc(C)c(C)c2)C(=O)/C1=N/Nc1cccc(-c2cccc(C(=O)O)c2)c1O [Eltrombopag] | -0.0806 | -0.347 | 0.375 | -0.762
42 | O=C(N/N=C/c1ccc(O)c(O)c1)c1cc2ccccc2cc1O [Dynasore] | -0.271 | -0.52 | -0.433 | -0.415
43 | CC(=O)O[C@]12CO[C@@H]1C[C@H](O)[C@]1(C)C(=O)[C@H](O)C3=C(C)[C@H](OC(=O)[C@H](O)[C@@H](NC(=O)OC(C)(C)C)c4ccccc4)C[C@](O)([C@H](OC(=O)c4ccccc4)C21)C3(C)C (some centres not stated) [Docetaxel] | -0.0586 | -0.226 | -0.254 | 0.161
44 | Nc1ncnc2c1c(-c1cccc(OCc3ccccc3)c1)cn2[C@H]1C[C@@H](CN2CCC2)C1 | 0.078 | 0.115 | -0.0576 | 0.0446
45 | CN(C)CCOC(c1ccccc1)c1ccccc1.Cl [Diphenhydramine HCl] | -0.0502 | -0.0336 | 0.271 | 0.162
46 | N#C[C@@H]1CCCN1C(=O)CNC12CC3CC(CC(O)(C3)C1)C2 [Vildagliptin (LAF-237)] | 0.832 | -0.463 | -0.205 | -0.716
47 | CC(=O)OCC(=O)[C@]12N=C(C)O[C@@H]1C[C@H]1[C@@H]3CCC4=CC(=O)C=C[C@]4(C)[C@@H]3[C@H](O)C[C@@]12C [Deflazacort] | 0.366 | 0.164 | 0.184 | -0.545
48 | c1ccc2c(Oc3nc(Nc4ccc(N5CCOCC5)cc4)c4ncn(C5CCCCC5)c4n3)cccc2c1 [Purmorphamine] | -0.33 | -0.459 | -0.526 | -0.439
49 | COc1ccccc1OCC(O)CN1CCN(CC(=O)Nc2c(C)cccc2C)CC1 (configuration not stated) [Ranolazine] | -0.241 | 0.242 | -0.0954 | 0.0729
50 | O=C(Nc1ccccc1)c1ccccc1O [Salicylanilide] | -0.012 | -0.45 | -0.504 | -0.36
51 | CCC[C@@H]1O[C@@H]2C[C@H]3[C@@H]4CCC5=CC(=O)C=C[C@]5(C)[C@@H]4[C@H](O)C[C@]3(C)[C@@]2(C(=O)CO)O1 [Budesonide] | -0.439 | 0.402 | 0.1 | -0.0352
52 | CC(C)N(CC[C@H](c1ccccc1)c1cc(CO)ccc1O)C(C)C | -0.226 | -0.39 | -0.226 | -0.269
53 | C#Cc1cccc(Nc2ncnc3cc(OCCOC)c(OCCO)cc23)c1 | -0.0244 | -0.386 | 0.0272 | -0.292

Complete entries, quoted from the list.
`CC(C)N(CC[C@H](c1ccccc1)c1cc(CO)ccc1O)C(C)C` is listed with OMR-Perf [1]: -0.226; Prob-Test [2]: -0.39; Prob-Naive [3]: -0.226; Prob-Train [4]: -0.269
`COc1ccc2c(c1)c(CC(=O)O)c(C)n2C(=O)c1ccc(Cl)cc1` [Indomethacin] is listed with OMR-Perf [1]: -0.349; Prob-Test [2]: -0.674; Prob-Naive [3]: -0.174; Prob-Train [4]: -1.33
